In PubChem BioAssay AID250 (DTP/NCI, 2004):
The list shows only some results of the screen, not a fair sample: it is rich in T/C values a quarter to a half above the control, in often repeated tests (any T/C) and in doses without a T/C. Other doses and runs of a compound stand elsewhere. T/C: endpoint of the treated group in % of that of the vehicle group. Where survival is the endpoint, the PubChem record calls one and a half times the control and up active, and a quarter to a half above the control has no call in these data; cut-offs in other NCI protocols can differ. Schedules are NCI's codes, taken here to give the interval after Q, in days (D) or hours (H), and the number of doses after X. Some schedule codes hold Z or #, which are not explained here. Some entries hold several experiments; the results are listed from low to high. Some T/C values carry the count of animals alive at the toxicity check (mostly the fifth day); without a count, all were alive then.

Test system: BDF1 mice, L1210 leukemia sc
Assay: NCI In Vivo Anticancer Drug Screen. Data for tumor model L1210 Leukemia (subcutaneous) in B6D2F1 (BDF1) mice
Conditions: higher T/C = longer survival
Summary of the method: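 Tumors were transplanted into mice, the animals were treated with compound, survival or tumor size was then measured, and treated values were divided by vehicle-control values.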

[1] = T/C endpoint: median survival time, dose: 180.0 mg/kg/injection, schedule: Q01DX Z (sc), vehicle: methylcellulose (MC)
[2] = T/C endpoint: median survival time, dose: 500.0 mg/kg/injection, schedule: Q01DX Z (sc), vehicle: methylcellulose (MC)
[3] = T/C endpoint: median survival time, dose: 108.0 mg/kg/injection, schedule: Q01DX Z (sc), vehicle: carboxymethylcellulose (CMC)
[4] = T/C endpoint: median survival time, dose: 23.0 mg/kg/injection, schedule: Q01DX Z (sc), vehicle: methylcellulose (MC)
[5] = T/C endpoint: median survival time, dose: 39.0 mg/kg/injection, schedule: Q01DX Z (sc), vehicle: methylcellulose (MC)
[6] = T/C endpoint: median survival time, dose: 65.0 mg/kg/injection, schedule: Q01DX Z (sc), vehicle: methylcellulose (MC)

SMILES: C[C@H](CN1CC(=O)NC(=O)C1)N1CC(=O)NC(=O)C1
- T/C (T/C endpoint: median survival time, dose: 16.0 mg/kg/injection, schedule: Q01DX009 (ip), vehicle: water, evaluated on day 21): 138 % of control
- T/C (T/C endpoint: median survival time, dose: 16.0 mg/kg/injection, schedule: Q01DX009 (ip), vehicle: water, evaluated on day 30): 136 % of control
- T/C (T/C endpoint: median survival time, dose: 32.0 mg/kg/injection, schedule: Q01DX009 (ip), vehicle: water): 135 % of control
- T/C (T/C endpoint: median survival time, dose: 64.0 mg/kg/injection, schedule: Q01DX009 (ip), vehicle: water): 138 % of control
- T/C (T/C endpoint: median survival time, dose: 128.0 mg/kg/injection, schedule: Q01DX009 (ip), vehicle: water, evaluated on day 21): 144 % of control
- T/C (T/C endpoint: median survival time, dose: 128.0 mg/kg/injection, schedule: Q01DX009 (ip), vehicle: water, evaluated on day 30): 125 % of control
- T/C (T/C endpoint: median survival time, dose: 256.0 mg/kg/injection, schedule: Q01DX009 (ip), vehicle: water): 125 % of control [9 of 10 alive]

SMILES: CCCCC(=O)N(c1ccc(Nc2c3ccccc3nc3cc([N+](=O)[O-])ccc23)cc1)S(C)(=O)=O
- T/C (T/C endpoint: mean survival time, dose: 12.5 mg/kg/injection, schedule: Q01DX009 (sc), vehicle: saline): 128 % of control

SMILES: CC(C)CSc1ncnc2nc[nH]c12
- T/C [1]: 140 % of control
- T/C (T/C endpoint: median survival time, dose: 300.0 mg/kg/injection, schedule: Q01DX Z (sc), vehicle: methylcellulose (MC)): 140 % of control [8 of 10 alive]
- T/C [2]: 140 % of control [9 of 10 alive]
- T/C (T/C endpoint: median survival time, dose: 833.0 mg/kg/injection, schedule: Q01DX Z (sc), vehicle: methylcellulose (MC)): 127 % of control

SMILES: CCCC(=O)NC1=C(N2CC2)C(=O)C(NC(=O)CCC)=C(N2CC2)C1=O
- T/C (T/C endpoint: median survival time, dose: 5.0 mg/kg/injection, schedule: Q01DX Z (sc), vehicle: saline): 144 % of control

SMILES: CN(C)CCNc1ccc([N+](=O)[O-])c2sc3ccccc3c(=O)c12
- T/C [3]: 138 % of control

SMILES: CCN(O)C(N)=O
- T/C (T/C endpoint: median survival time, dose: 375.0 mg/kg/injection, schedule: Q01DX Z (sc), vehicle: methylcellulose (MC)): 129 % of control
- T/C [2]: 125 % of control

SMILES: O=NN(CCCl)C(=O)NC1CC2CCC1C2 (stereo not given)
- T/C (T/C endpoint: median survival time, dose: 180.0 mg/kg/injection, schedule: Q01DX Z (oral), vehicle: carboxymethylcellulose (CMC)): 142 % of control

SMILES: CCCn1cnc2c(=S)nc(N)[nH]c21
- T/C (T/C endpoint: median survival time, dose: 14.0 mg/kg/injection, schedule: Q01DX Z (sc), vehicle: methylcellulose (MC)): 127 % of control
- T/C [4]: 144 % of control
- T/C [5]: 133 % of control

SMILES: S=c1nc[nH]c2c1ncn2C1CCCO1 (stereo not given)
- T/C [4]: 130 % of control
- T/C [5]: 130 % of control
- T/C [6]: 130 % of control

SMILES: O=NN(CCCl)C(=O)N[C@H]1CCCC[C@@H]1Cl
- T/C (T/C endpoint: median survival time, dose: 108.0 mg/kg/injection, schedule: Q01DX Z (oral), vehicle: carboxymethylcellulose (CMC)): 136 % of control
- T/C [3]: 142 % of control
- T/C (T/C endpoint: median survival time, dose: 180.0 mg/kg/injection, schedule: Q01DX Z (sc), vehicle: carboxymethylcellulose (CMC)): 125 % of control

SMILES: N[C@H](C(=O)O)[C@H]1ON=C(Cl)[C@@H]1O
- T/C (T/C endpoint: median survival time, dose: 16.0 mg/kg/injection, schedule: Q01DX009 (sc), vehicle: saline, evaluated on day 21): 125 % of control
- T/C (T/C endpoint: median survival time, dose: 16.0 mg/kg/injection, schedule: Q01DX009 (sc), vehicle: saline, evaluated on day 30): 142 % of control

SMILES: O[C@H](CN1CC1)[C@@H](O)CN1CC1
- T/C (T/C endpoint: median survival time, dose: 0.36 mg/kg/injection, schedule: Q01DX Z (sc), vehicle: saline): 133 % of control
- T/C (T/C endpoint: median survival time, dose: 0.39 mg/kg/injection, schedule: Q01DX Z (sc), vehicle: saline): 138 % of control
- T/C (T/C endpoint: median survival time, dose: 1.7 mg/kg/injection, schedule: Q01DX Z (sc), vehicle: saline): 133 % of control
- T/C (T/C endpoint: median survival time, dose: 1.8 mg/kg/injection, schedule: Q01DX Z (sc), vehicle: saline): 133 % of control

SMILES: C[C@@H](CN1CC(=O)NC(=O)C1)N1CC(=O)NC(=O)C1
- T/C (T/C endpoint: median survival time, dose: 16.0 mg/kg/injection, schedule: Q01DX009 (ip), vehicle: water): 125 % of control
- T/C (T/C endpoint: median survival time, dose: 32.0 mg/kg/injection, schedule: Q01DX009 (ip), vehicle: water, evaluated on day 21): 128 % of control
- T/C (T/C endpoint: median survival time, dose: 32.0 mg/kg/injection, schedule: Q01DX009 (ip), vehicle: water, evaluated on day 30): 130 % of control
- T/C (T/C endpoint: median survival time, dose: 64.0 mg/kg/injection, schedule: Q01DX009 (ip), vehicle: water, evaluated on day 20): 126 % of control
- T/C (T/C endpoint: median survival time, dose: 64.0 mg/kg/injection, schedule: Q01DX009 (ip), vehicle: water, evaluated on day 21): 144 % of control
- T/C (T/C endpoint: median survival time, dose: 64.0 mg/kg/injection, schedule: Q01DX009 (ip), vehicle: water, evaluated on day 30): 138 % of control
- T/C (T/C endpoint: median survival time, dose: 128.0 mg/kg/injection, schedule: Q01DX009 (ip), vehicle: water): 144 % of control
- T/C (T/C endpoint: median survival time, dose: 256.0 mg/kg/injection, schedule: Q01DX009 (ip), vehicle: water, evaluated on day 21): 149 % of control [9 of 10 alive]
- T/C (T/C endpoint: median survival time, dose: 256.0 mg/kg/injection, schedule: Q01DX009 (ip), vehicle: water, evaluated on day 30): 125 % of control

SMILES: Nc1nc(=S)c2ncn(C3OC(COC(=O)c4ccccc4)C(OC(=O)c4ccccc4)C3OC(=O)c3ccccc3)c2[nH]1 (stereo not given)
- T/C [6]: 125 % of control
- T/C [1]: 130 % of control

SMILES: O=P(N1CCOCC1)(N1CC1)N1CC1
- T/C (T/C endpoint: median survival time, dose: 39.0 mg/kg/injection, schedule: Q01DX Z (sc), vehicle: saline): 140 and 145 % of control
- T/C (T/C endpoint: median survival time, dose: 65.0 mg/kg/injection, schedule: Q01DX Z (sc), vehicle: saline): 130 % of control

SMILES: C1CN1c1nc(N2CC2)nc(N2CC2)n1
- T/C (T/C endpoint: median survival time, dose: 3.0 mg/kg/injection, schedule: Q01DX Z (sc), vehicle: saline): 130 % of control

SMILES: CNC=O
- T/C (T/C endpoint: median survival time, dose: 518.0 mg/kg/injection, schedule: Q01DX Z (sc), vehicle: saline): 125 % of control [8 of 10 alive]

SMILES: CN=C(NC)c1ccc(NC(=O)Nc2ccc(NC(=O)Nc3ccc(C(=NC)NC)cc3)cc2)cc1
- T/C (T/C endpoint: median survival time, dose: 23.0 mg/kg/injection, schedule: Q01DX Z (sc), vehicle: saline): 140 % of control

SMILES: Cc1cccc(C)c1NC(=O)N(CCCl)N=O
- T/C (T/C endpoint: median survival time, dose: 14.0 mg/kg/injection, schedule: Q01DX Z (sc), vehicle: carboxymethylcellulose (CMC)): 125 % of control

SMILES: CCCNc1ncnc2[nH]ncc12
- T/C (T/C endpoint: median survival time, dose: 23.3 mg/kg/injection, schedule: Q01DX Z (sc), vehicle: methylcellulose (MC)): 130 % of control
- T/C (T/C endpoint: median survival time, dose: 38.9 mg/kg/injection, schedule: Q01DX Z (sc), vehicle: methylcellulose (MC)): 140 % of control

SMILES: CS(=O)(=O)OCCCCCCCCCOS(C)(=O)=O
- T/C (T/C endpoint: median survival time, dose: 130.0 mg/kg/injection, schedule: Q01DX Z (sc), vehicle: methylcellulose (MC)): 140 % of control [9 of 10 alive]
- T/C (T/C endpoint: median survival time, dose: 360.0 mg/kg/injection, schedule: Q01DX Z (sc), vehicle: methylcellulose (MC)): 140 % of control
- T/C (T/C endpoint: median survival time, dose: 600.0 mg/kg/injection, schedule: Q01DX Z (sc), vehicle: methylcellulose (MC)): 130 % of control [8 of 10 alive]

SMILES: Nc1nc(SCc2ccccc2)c2[nH]cnc2n1
- T/C [5]: 144 % of control
- T/C [6]: 133 % of control
- T/C (T/C endpoint: median survival time, dose: 108.0 mg/kg/injection, schedule: Q01DX Z (sc), vehicle: methylcellulose (MC)): 133 % of control

SMILES: CN(C)c1ccc(Nc2c3ccccc3nc3ccccc23)cc1
- T/C (T/C endpoint: median survival time, dose: 720.0 mg/kg/injection, schedule: Q01DX Z (sc), vehicle: saline): 140 % of control

SMILES: O=C(O)c1[nH]c(=O)[nH]c(=O)c1F
- T/C (T/C endpoint: median survival time, dose: 4.0 mg/kg/injection, schedule: Q01DX Z (sc), vehicle: saline): 133 % of control
- T/C (T/C endpoint: median survival time, dose: 5.0 mg/kg/injection, schedule: Q01DX Z (sc), vehicle: methylcellulose (MC)): 135 % of control
